# The list shows a part of the results.
# B1: PX14404-bvu-534-26-534 (Bacteroides vulgatus) (protein)
# chain: EDPRGKLTPENFFSTQDELNMSIYALYQKVNLSQVYTNMQLPQWQGDDITTNPGSNKQPAAEMDKFAAANNNKGVKDAWNMHYAIVKAANLIIQGASKTPTTQDEINIALGQAKFWRAYAYFTLVRLWGPLPMNLDNVNDDYTKPLSPVEEVYGHIVQDLTEAEAVLPTGYSGSPRFLNGVNVYVTRQAAKSTLAAVYMAMAGWPMNKTEYYAKAAEKAKEVIEGVNRGEYEYKLDKDYKDVYAMSNNYNNETVLGINYSPFVDWAQDSELTSCNQFESLGGWGDAWGEIRFWKEFPDGPRKDATYDPKIRLKDGTLVDWWELKEDGTPVVPEHHPMFSIFSVNWDPASKVNTSAPYDYTKPASQNMCNDHRHRIIRYSEVLLWYAEAKARTGQTDELAFKCLNDVRERAGLEPLTGLSADDLAEAAYKEHGWEVAGYWVALVTRRADQFRMNRLKDTFKERAENTAVEVADGILVKESVEYTNRTWSDNLMYLPYPDMDSQKNPNLVR
# Key:
# Test in all cases: glycan array binding signal (z-score within array); higher = stronger binding
# Settings in all cases: glycan notation: IUPAC condensed, linker removed
# [1] = molecular target: Gal(b1-4)GlcNAc(b1-2)[Gal(b1-4)GlcNAc(b1-6)]Man(a1-6)[GlcNAc(b1-4)][Gal(b1-4)GlcNAc(b1-2)Man(a1-3)]Man(b1-4)GlcNAc(b1-4)GlcNAc
# Procedure, shortened: (§1)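 Glycan array binding is given as a within-array Z-score, which can be read as non-binding when negative. The arrays, 3228 of them, came from the Consortium for Functional Glycomics database and were retained only where the protein sequence was available. Z-scores were averaged across arrays of the same protein sequence at different concentrations or buffers and across linkers.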
# [2] = molecular target: Gal(b1-4)GlcNAc(b1-2)[Gal(b1-4)GlcNAc(b1-6)]Man(a1-6)[GlcNAc(b1-4)][Gal(b1-4)GlcNAc(b1-2)[Gal(b1-4)GlcNAc(b1-4)]Man(a1-3)]Man(b1-4)GlcNAc(b1-4)[Fuc(a1-6)]GlcNAc
# Procedure, shortened: as §1
# [3] = molecular target: Gal(b1-4)GlcNAc(b1-3)Gal(b1-3)GalNAc
# Procedure, shortened: as §1
# [4] = molecular target: Gal(b1-4)GlcNAc(b1-3)Gal(b1-3)GlcNAc
# Procedure, shortened: as §1
# [5] = molecular target: Gal(b1-4)GlcNAc(b1-3)Gal(b1-4)Glc
# Procedure, shortened: as §1
# [6] = molecular target: Gal(b1-4)GlcNAc(b1-3)Gal(b1-4)GlcNAc
# Procedure, shortened: as §1
# [7] = molecular target: Gal(b1-4)GlcNAc(b1-3)Gal(b1-4)GlcNAc(b1-2)Man(a1-3)[Gal(b1-4)GlcNAc(b1-3)Gal(b1-4)GlcNAc(b1-2)Man(a1-6)]Man(b1-4)GlcNAc(b1-4)GlcNAc
# Procedure, shortened: as §1
# [8] = molecular target: Gal(b1-4)GlcNAc(b1-3)Gal(b1-4)GlcNAc(b1-2)Man(a1-3)[Gal(b1-4)GlcNAc(b1-3)Gal(b1-4)GlcNAc(b1-2)Man(a1-6)]Man(b1-4)GlcNAc(b1-4)[Fuc(a1-6)]GlcNAc
# Procedure, shortened: as §1
# [9] = molecular target: Gal(b1-4)GlcNAc(b1-3)Gal(b1-4)GlcNAc(b1-2)[Gal(b1-4)GlcNAc(b1-3)Gal(b1-4)GlcNAc(b1-6)]Man(a1-6)[Gal(b1-4)GlcNAc(b1-3)Gal(b1-4)GlcNAc(b1-2)Man(a1-3)]Man(b1-4)GlcNAc(b1-4)GlcNAc
# Procedure, shortened: as §1
# [10] = molecular target: Gal(b1-4)GlcNAc(b1-3)Gal(b1-4)GlcNAc(b1-2)[Gal(b1-4)GlcNAc(b1-3)Gal(b1-4)GlcNAc(b1-6)]Man(a1-6)[Gal(b1-4)GlcNAc(b1-3)Gal(b1-4)GlcNAc(b1-2)Man(a1-3)]Man(b1-4)GlcNAc(b1-4)[Fuc(a1-6)]GlcNAc
# Procedure, shortened: as §1
# [11] = molecular target: Gal(b1-4)GlcNAc(b1-3)Gal(b1-4)GlcNAc(b1-3)Gal(b1-4)GlcNAc
# Procedure, shortened: as §1
# [12] = molecular target: Gal(b1-4)GlcNAc(b1-3)Gal(b1-4)GlcNAc(b1-3)Gal(b1-4)GlcNAc(b1-2)Man(a1-3)[Gal(b1-4)GlcNAc(b1-3)Gal(b1-4)GlcNAc(b1-3)Gal(b1-4)GlcNAc(b1-2)Man(a1-6)]Man(b1-4)GlcNAc(b1-4)GlcNAc
# Procedure, shortened: as §1
# [13] = molecular target: Gal(b1-4)GlcNAc(b1-3)Gal(b1-4)GlcNAc(b1-3)Gal(b1-4)GlcNAc(b1-2)Man(a1-3)[Gal(b1-4)GlcNAc(b1-3)Gal(b1-4)GlcNAc(b1-3)Gal(b1-4)GlcNAc(b1-2)Man(a1-6)]Man(b1-4)GlcNAc(b1-4)[Fuc(a1-6)]GlcNAc
# Procedure, shortened: as §1
# [14] = molecular target: Gal(b1-4)GlcNAc(b1-3)Gal(b1-4)GlcNAc(b1-3)Gal(b1-4)GlcNAc(b1-2)[Gal(b1-4)GlcNAc(b1-3)Gal(b1-4)GlcNAc(b1-3)Gal(b1-4)GlcNAc(b1-6)]Man(a1-6)[Gal(b1-4)GlcNAc(b1-3)Gal(b1-4)GlcNAc(b1-3)Gal(b1-4)GlcNAc(b1-2)Man(a1-3)]Man(b1-4)GlcNAc(b1-4)[Fuc(a1-6)]GlcNAc
# Procedure, shortened: as §1
# [15] = molecular target: Gal(b1-4)GlcNAc(b1-3)Gal(b1-4)GlcNAc(b1-3)Gal(b1-4)GlcNAc(b1-3)Gal(b1-4)GlcNAc(b1-2)Man(a1-3)[Gal(b1-4)GlcNAc(b1-3)Gal(b1-4)GlcNAc(b1-3)Gal(b1-4)GlcNAc(b1-3)Gal(b1-4)GlcNAc(b1-2)Man(a1-6)]Man(b1-4)GlcNAc(b1-4)GlcNAc
# Procedure, shortened: as §1
# [16] = molecular target: Gal(b1-4)GlcNAc(b1-3)Gal(b1-4)GlcNAc(b1-3)Gal(b1-4)GlcNAc(b1-3)Gal(b1-4)GlcNAc(b1-2)Man(a1-3)[Gal(b1-4)GlcNAc(b1-3)Gal(b1-4)GlcNAc(b1-3)Gal(b1-4)GlcNAc(b1-3)Gal(b1-4)GlcNAc(b1-2)Man(a1-6)]Man(b1-4)GlcNAc(b1-4)[Fuc(a1-6)]GlcNAc
# Procedure, shortened: as §1
# [17] = molecular target: Gal(b1-4)GlcNAc(b1-3)Gal(b1-4)GlcNAc(b1-3)Gal(b1-4)GlcNAc(b1-3)Gal(b1-4)GlcNAc(b1-2)[Gal(b1-4)GlcNAc(b1-3)Gal(b1-4)GlcNAc(b1-3)Gal(b1-4)GlcNAc(b1-3)Gal(b1-4)GlcNAc(b1-6)]Man(a1-6)[Gal(b1-4)GlcNAc(b1-3)Gal(b1-4)GlcNAc(b1-3)Gal(b1-4)GlcNAc(b1-3)Gal(b1-4)GlcNAc(b1-2)Man(a1-3)]Man(b1-4)GlcNAc(b1-4)[Fuc(a1-6)]GlcNAc
# Procedure, shortened: as §1
# [18] = molecular target: Gal(b1-4)GlcNAc(b1-3)Gal(b1-4)GlcNAc(b1-3)Gal(b1-4)GlcNAc(b1-3)Gal(b1-4)GlcNAc(b1-3)Gal(b1-4)GlcNAc(b1-2)Man(a1-3)[Gal(b1-4)GlcNAc(b1-3)Gal(b1-4)GlcNAc(b1-3)Gal(b1-4)GlcNAc(b1-3)Gal(b1-4)GlcNAc(b1-3)Gal(b1-4)GlcNAc(b1-2)Man(a1-6)]Man(b1-4)GlcNAc(b1-4)GlcNAc
# Procedure, shortened: as §1
# [19] = molecular target: Gal(b1-4)GlcNAc(b1-3)Gal(b1-4)GlcNAc(b1-3)Gal(b1-4)GlcNAc(b1-3)Gal(b1-4)GlcNAc(b1-3)Gal(b1-4)GlcNAc(b1-2)Man(a1-3)[Gal(b1-4)GlcNAc(b1-3)Gal(b1-4)GlcNAc(b1-3)Gal(b1-4)GlcNAc(b1-3)Gal(b1-4)GlcNAc(b1-3)Gal(b1-4)GlcNAc(b1-2)Man(a1-6)]Man(b1-4)GlcNAc(b1-4)[Fuc(a1-6)]GlcNAc
# Procedure, shortened: as §1
binder,measurement,setting,value
B1,glycan array binding signal (z-score),[1],-0.45
same,glycan array binding signal (z-score),[2],-1.15
same,glycan array binding signal (z-score),[3],-0.847
same,glycan array binding signal (z-score),[4],-0.873
same,glycan array binding signal (z-score),[5],-0.063
same,glycan array binding signal (z-score),[6],-0.608
same,glycan array binding signal (z-score),[7],0.621
same,glycan array binding signal (z-score),[8],0.378
same,glycan array binding signal (z-score),[9],0.713
same,glycan array binding signal (z-score),[10],0.612
same,glycan array binding signal (z-score),[11],-1.59
same,glycan array binding signal (z-score),[12],1.01
same,glycan array binding signal (z-score),[13],0.054
same,glycan array binding signal (z-score),[14],0.343
same,glycan array binding signal (z-score),[15],-0.238
same,glycan array binding signal (z-score),[16],-0.463
same,glycan array binding signal (z-score),[17],1.17
same,glycan array binding signal (z-score),[18],-0.664
same,glycan array binding signal (z-score),[19],0.247

# Part of the list above, bar-delimited:
binder | measurement | setting | value
B1 | glycan array binding signal (z-score) | [4] | -0.873
same | glycan array binding signal (z-score) | [7] | 0.621
same | glycan array binding signal (z-score) | [12] | 1.01
same | glycan array binding signal (z-score) | [15] | -0.238
same | glycan array binding signal (z-score) | [19] | 0.247

# From the supplement of paper PMC8728848
